Experimental data: PubChem BioAssay AID1224828 (NIAID, 2016)
In all, the deposit lists about 17,000 reagents; shown is a part drawn at random. Over the whole deposit, 762 (4.5%) were called active. 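Active calls include both raised and lowered p65 entry, mostly lowered; wells with fewer than 50 cells lack a z-score.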 Raw values are not corrected between plates. Unmarked entries are inactive. Reagents against one gene are numbered here.

- Screen: 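Regulators linking TLR4 signalling to p65 nuclear translocation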 (primary screen)
- System: mouse RAW264.7 G9 macrophage reporter cells (GFP-p65, Tnf promoter-mCherry)
- Knock-down reagent: siRNA pool against mouse genes, 100 nM
- Timing: 2 days siRNA transfection, then 40 min LPS before fixation
- Conditions: LPS (Salmonella minnesota R595) at 10 ng/ml
- Measurement: 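Microscopy ratio of nuclear to perinuclear-ring GFP-p65 signal, scaled to the plate median; gene score is the average of two replicate robust z-scores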
- Scale: p65 translocation robust z-score: higher = more nuclear NF-kappaB p65 after LPS than the plate median; nuclear/cytoplasmic p65 ratio: higher = more nuclear NF-kappaB p65
- Rule for the call: 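Active if robust z is above 3.3 (negative regulators) or below -1.56, the Tlr4 control median (positive regulators); activity score 50 or more; control wells not called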
- Meaning of the calls: active = hit (p65 shift raised or lowered); inactive = no clear change

gene	reagent no.	p65 translocation robust z-score	nuclear/cytoplasmic p65 ratio, rep 1	nuclear/cytoplasmic p65 ratio, rep 2	low cell count flag
Trim44	1	1.29	1.6	1.34	enough cells to score
Lbh	1	1.95	1.72	1.79	enough cells to score
Mrpl16	1	-1.24	1.58	1.07	enough cells to score
Cdk5	1	-0.08	1.55	1.48	enough cells to score
Gm839	1	0.23	1.66	1.59	enough cells to score
Pdcl	1	0.52	1.59	1.49	enough cells to score
Capza2	1	-0.85	1.45	1.53	enough cells to score
Smn1	1	0.58	1.51	1.76	enough cells to score
Spink2	1	-0.38	1.34	1.37	enough cells to score
Glrp1	1	1.2	1.77	1.63	enough cells to score
Dnajb12	1	1.27	1.45	1.69	enough cells to score
Slc37a3	1		1.98	1.16	fewer than 50 cells per well; well left out of scoring
H2-M10.3	1	-2.67 (active)	1.2	1.18	enough cells to score
Foxo3	1	0.12	1.41	1.42	enough cells to score
Fam228b	1	0.36	1.32	1.58	enough cells to score
Bhlha9	1		1.05	1.21	fewer than 50 cells per well; well left out of scoring
Col25a1	1	0.5	1.59	1.93	enough cells to score
Samd5	1	-0.48	1.34	1.36	enough cells to score
Exosc2	1	-0.69	1.47	1.21	enough cells to score
Stxbp4	1	-0.24	1.36	1.23	enough cells to score
Stxbp4	2	-0.64	1.26	1.39	enough cells to score
Fbxo7	1	-0.25	1.45	1.32	enough cells to score
Phyhipl	1	-0.34	1.38	1.21	enough cells to score

Copied from the list.
Col25a1, p65 translocation robust z-score = 0.5
For “low cell count flag”, Stxbp4 #2 is entered as enough cells to score
Result of Fbxo7 in “nuclear/cytoplasmic p65 ratio, rep 2”: 1.32
For “p65 translocation robust z-score”, Smn1 reads 0.58
Value for H2-M10.3 in “low cell count flag”: enough cells to score (active)

More entries:
gene	reagent no.	p65 translocation robust z-score	nuclear/cytoplasmic p65 ratio, rep 1	nuclear/cytoplasmic p65 ratio, rep 2	low cell count flag
Tgtp1	1		1.4	1.06	fewer than 50 cells per well; well left out of scoring
Ccdc22	1	-1.65 (active)	1.23	1.16	enough cells to score
Ubxn11	1	-0.42	1.45	1.55	enough cells to score
Catsperg2	1	0.91	1.51	1.33	enough cells to score
Or6k2	1	0.85	1.51	1.37	enough cells to score
Cimip2a	1		1.02	1.02	fewer than 50 cells per well; well left out of scoring
Dtnb	1	-0.83	1.38	1.26	enough cells to score
Tex13c3	1	0.55	1.74	1.61	enough cells to score
Pcdhga4	1	0.33	1.46	1.3	enough cells to score
Ppp3ca	1	0.2	1.51	1.45	enough cells to score
Shisa2	1	1.75	1.64	1.82	enough cells to score
Grin3a	1	-0.91	1.12	1.28	enough cells to score
Afg1l	1	0.57	1.59	1.55	enough cells to score
Kif9	1	0.42	1.59	1.39	enough cells to score
Gjd2	1	-0.06	1.57	1.47	enough cells to score
Dusp10	1	-0.1	1.8	1.27	enough cells to score
Ddx25	1	-0.59	1.36	1.58	enough cells to score
Obox1	1	0.79	1.89	1.6	enough cells to score
Lin54	1	0.18	1.58	1.77	enough cells to score
Slc3a1	1	-1.69 (active)	1.27	1.38	enough cells to score
Ccr6	1	-1.43	1.29	1.39	enough cells to score
Slc31a1	1		1.02	1.29	fewer than 50 cells per well; well left out of scoring
Pcsk1	1	1.27	1.65	1.55	enough cells to score
Rnd1	1	0.59	1.54	1.65	enough cells to score
Nutm1	1	-0.44	1.65	1.43	enough cells to score
Zkscan6	1		1.15	1.18	fewer than 50 cells per well; well left out of scoring
Tulp3	1		1.27	1.29	fewer than 50 cells per well; well left out of scoring
Muc6	1	0.3	1.77	1.69	enough cells to score
Snta1	1	-0.13	1.22	1.22	enough cells to score
Ccdc186	1	0.96	1.24	1.66	enough cells to score
Sp110	1	-0.44	1.55	1.54	enough cells to score
Wnt8b	1	0.18	1.64	1.43	enough cells to score
Syk	1	-1.96 (active)	1.45	1.14	enough cells to score
Cyp2c70	1	0.76	1.61	1.99	enough cells to score
Dazap2	1	-1.03	1.32	1.24	enough cells to score
Hdgfl2	1	-0.68	1.4	1.58	enough cells to score
